Reference: US20240115742A1, “FLUORINATED FIBERS FOR MULTIMODAL 1H AND 19F MRI, ULTRASOUND, FLUORESCENCE DETECTION AND CONFORMATIONAL AND TEMPERATURE DETECTION BY 19F MRS” (New York University, priority 2022, published 2024)

B1: C: cartilage oligomeric matrix protein coiled-coil with His tag, SEQ ID NO: 21 (protein)
chain: MRGSHHHHHHGSIEGRAPQMLRELQETNAALQDVRELLRQQVKEITFLKNTVMESDASGKL
modifications: His tag

Tests used:
Assay type in all cases: physicochemical
[1] = Circular dichroism wavelength scans
[2] = Passive microrheology (multiple particle tracking); conditions: 2 mM, 4 °C
Method: Microrheology. Protein was concentrated to 2 mM, as measured by BCA assay, and immediately aliquoted 27.7 μL into a 200 μL PCR tube. 1% v/v (or 0.3 μL) of […] red polystyrene fluorometric beads (FluoSpheres) were then added to the sample. A glass capillary tube was then loaded with sample by capillary action and sealed to prevent evaporation while being affixed to a microscopy slide using two-component fast-curing epoxy (JB Weld). Samples were then imaged at 0 h as a starting measurement and then every 12 h using a Leica DMI4000b inverted microscope equipped with a Leica DFC310 FX 1.4 megapixel camera at 40× magnification with 2×2 binning. Between imaging, slides were incubated on a rotisserie at 8 rpm to prevent sedimentation of the fluorometric beads. Each image series was recorded for a total of 300 frames with a lag time (i) of 0.037 s between each frame. Relaxation exponents i.e. the logarithmic slopes of particle mean-squared displacements (MSDs) with respect to lag time as determined by multiple particle tracking (MPT) analysis were used to determine when equilibration of the hydrogel was complete and measurements were no longer recorded (60 h in this case). Images were stacked and converted to grayscale in MATLAB (Mathworks, R2021a) using code developed in-house, with MPT then being employed using MATLAB code developed and modified by Dufresene, Kilfoil, Blair, and O'Neill as described previously.
Gelation kinetics of the hydrogels were assessed using passive microrheology (FIG. 61a-e). Time to gelation was measured immediately after concentration to 2 mM at 4° C. by incubating with 1 μm fluorescent tracer beads added to the protein in solution state at a final concentration of 1% (v/v). […] Mean square displacements (MSDs) of bead trajectories were analyzed periodically per the span of respective protein gelation times. An initial MSD-τ curve corresponding to a solution at 1.00 μm^2 s^−1 (consistent with Brownian motion) was used as the master solution curve and the final MSD-τ curve measured per protein gelation was selected as the master gel curve. Intermediate MSD-τ curves measured were superimposed onto either the master solution or master gel curve using horizontal and vertical shift factors, a and b, respectively. The window of sol-gel transition was determined between where a divergence in superposition occurred for each protein gelation.
Microrheology. Microrheology was used to assess gelation kinetics as described previously. Immediately after concentration to 2 mM, 29.7 uL were aliquoted with 0.3 uL of 1 um diameter FluoSpheres and loaded into glass capillary tubes (VitroCom). Samples were then imaged using an inverted fluorescent microscope (ZEISS Microscopy) at 40× magnification with 2×2 binning. Samples were incubated at 4° C. on a rotisserie at 8 rpm between measurements and imaged incrementally at select time points. […] Images were stacked, converted to greyscale, and analyzed with multiple particle tracking (MPT) in MATLAB (Mathworks, R2021a). Prior to other experiments of hydrogels in the gel state, microrheology here was used to confirm its complete transition.

[3] = ATR-FTIR peak deconvolution of secondary structure; conditions: for Turns/Coils (%) / α-helix (%) / β-sheet(%): 2 mM
Method: Attenuated Total Reflectance-Fourier Transform Infrared Spectroscopy. Secondary structure of protein fiber variants was confirmed using attenuated total reflectance-Fourier transform infrared (ATR-FTIR) spectroscopy using the Nicolet 6700 Fourier Transform Infrared Spectrometer equipped with a diamond ATR accessory and a mercury cadmium telluride (MCT)-A detector. Spectra were collected for 5 μL of 500 μM protein from 4000-400 cm^−1 with 0.5 cm^−1 increments at room temperature (RT). For CCM bound protein, protein was bound at a final concentration of 500 μM and saturated with CCM as determined by fluorescent spectroscopic drug binding with a final 1% v/v DMSO. Sample spectra were normalized using buffer background and analyzed from 1700-1600 cm^−1 corresponding to the amide I region. Peaks were deconvoluted using Gaussian functions in PeakFit software until the goodness of fit reached r^2≥0.99. Peaks were associated with secondary structure were determined by methods known in the art.
(§1) Attenuated Total Reflectance-Fourier Transform Infrared Spectroscopy. Secondary structure of Q2 protein was confirmed using attenuated total reflectance-Fourier transform infrared (ATR-FTIR) spectroscopy using the Nicolet 6700 Fourier Transform Infrared Spectrometer equipped with a diamond ATR accessory and a mercury cadmium telluride (MCT)-A detector. Spectra were collected for 5 μL of 2 mM protein from 4000-400 cm^−1 with 0.5 cm^−1 increments. Sample spectra were normalized using buffer background and analyzed from 1700-1600 cm^−1 corresponding to the amide I region. Peaks were deconvoluted using Gaussian functions in PeakFit software until the goodness of fit reached r^2>0.99.
as §1, with “of Q2LTF and QLTF” for “of Q2”, “using a” for “using the”, “of 1” for “of 2”, “with 4.0” for “with 0.5”, “reached r^2≥0.99.” for “reached r^2>0.99.”
Attenuated Total Reflectance-Fourier Transform Infrared Spectroscopy. Secondary structure before (solution) and after gelation (gel) was also assessed by peak deconvolution of attenuated total reflectance-Fourier transform infrared (ATR-FTIR) spectra. ATR-FTIR measurements were performed using a Nicolet 6700 Fourier Transform Infrared Spectrometer equipped with a mercury cadmium telluride (MCT)-A detector. Spectra were collected for 5 μL samples of protein at 2 mM from 4000-400 cm^−1 with a 4.0 cm^−1 resolution, normalized, and buffer-subtracted prior to analysis from 1700-1600 cm^−1, corresponding to the amide I region. ATR-FTIR measurements were performed immediately after concentration to 2 mM for solution measurements and after. Peaks were deconvoluted using Gaussian functions in PeakFit software until the goodness of fit reached r^2≥0.99.

Molecule | θ208 ([1]; 25 °C, 15 μM, pH 4.0) | θ222 ([1]; 25 °C, 15 μM, pH 4.0) | θ222/θ208 ([1]; 25 °C, 15 μM, pH 4.0) | 3-10 Helix ([3]; native) | Turns/Coils (combined, random content) ([3]; native) | Unordered ([3]; native) | α-helix ([3]; native) | β-sheet ([3]; native) | β-sheet (combined) ([3]; native) | 3-10 Helix ([3]; w/CCM) | Turns/Coils (combined) ([3]; w/CCM) | Unordered ([3]; w/CCM) | α-helix ([3]; w/CCM) | β-sheet ([3]; w/CCM) | β-sheet (combined) ([3]; w/CCM) | also measured
Q4: Q hydrogel variant from Rosetta Monte Carlo search, SEQ ID NO: 13 (MRGSHHHHHHGSIEGRVKEITFIKKTIEQIAEEMKEINKAIHDIRHALENISKK) [Protein Q4] |  |  |  |  |  |  |  |  |  |  |  |  |  |  |  | θ222/θ208 ([1]; Gel): 1.4 ± 0.2; θ208 ([1]; Gel, 15 μM, 4 °C): −5,000 ± 1,000 mdeg · cm^2 · dmol^−1; θ222 ([1]; Gel, 15 μM, 4 °C): −5,000 ± 1,000 mdeg · cm^2 · dmol^−1; θ208 ([1]; Solution, 15 μM, 4 °C): −6,000 ± 1,000 mdeg · cm^2 · dmol^−1; θ222 ([1]; Solution, 15 μM, 4 °C): −7,000 ± 1,000 mdeg · cm^2 · dmol^−1; MRE minimum at 208 nm ([1]; solution): −5,600±1,400 deg cm^2 dmol^−1; MRE minimum at 222 nm ([1]; solution): 7,100±800 deg cm^2 dmol^−1; θ222/θ208 ([1]; solution): 1.3 ± 0.3; critical gelation time, tc (tgel) [2]: 21.6 ± 2 h and 21.6 ± 2.0 h; critical relaxation exponent, nc [2]: 0.56±0.03; Turns/Coils (%) ([3]; Gel): 16.8 ± 3.5%; α-helix (%) ([3]; Gel): 34.7 ± 6.0%; β-sheet(%) ([3]; Gel): 48.6 ± 4.2%; Turns/Coils (%) ([3]; Solution): 15.2 ± 9.4%; α-helix (%) ([3]; Solution): 42.2 ± 8.8%; β-sheet(%) ([3]; Solution): 45.2 ± 7.2%
C2: C variant with redistributed electrostatic patches, SEQ ID NO: 22 (MRGSHHHHHHGSIEGRMQLAKHMLKELQKTNALQSVRTLLQQQVEEITQLKETVENSDSS) [Protein C2] | −19,000 ± 1,000 mdeg · cm^2 · dmol^−1 | −18,000 ± 600 mdeg · cm^2 · dmol^−1 | 0.97 ± 0.02 | 4.1% | 9.4±7.2% | 0.0% | 38.4% | 37.2% | 52.2 ± 3.6% | 12.3% | 21.2 ± 6.7% | 0.0% | 50.0% | 23.9% | 28.7 ± 37.9% | 
B1 | −21,000 ± 5,000 mdeg · cm^2 · dmol^−1 | −23,000 ± 5,000 mdeg · cm^2 · dmol^−1 | 1.11 ± 0.06 | 10.6% | 20.6 ± 12.0% | 0.0% | 42.7% | 25.1% | 36.5 ± 6.2% | 19.1% | 39.9 ± 20.6% | 0.0% | 26.6% | 33.5% | 33.5 ± 37.9% | 

“And” between values parts separate entries of the source, which are not always exact repeats. Equal values may be shown once.
